Laboratory results taken from patent US20210292762.
pKd: −log10 of the molar value. For some assays here: Where cells or extracts were used, other partners may take part.

Amino acid sequences for entries named in this document (tags omitted). Residues count along the entry.
UniProt P05362, 28-532: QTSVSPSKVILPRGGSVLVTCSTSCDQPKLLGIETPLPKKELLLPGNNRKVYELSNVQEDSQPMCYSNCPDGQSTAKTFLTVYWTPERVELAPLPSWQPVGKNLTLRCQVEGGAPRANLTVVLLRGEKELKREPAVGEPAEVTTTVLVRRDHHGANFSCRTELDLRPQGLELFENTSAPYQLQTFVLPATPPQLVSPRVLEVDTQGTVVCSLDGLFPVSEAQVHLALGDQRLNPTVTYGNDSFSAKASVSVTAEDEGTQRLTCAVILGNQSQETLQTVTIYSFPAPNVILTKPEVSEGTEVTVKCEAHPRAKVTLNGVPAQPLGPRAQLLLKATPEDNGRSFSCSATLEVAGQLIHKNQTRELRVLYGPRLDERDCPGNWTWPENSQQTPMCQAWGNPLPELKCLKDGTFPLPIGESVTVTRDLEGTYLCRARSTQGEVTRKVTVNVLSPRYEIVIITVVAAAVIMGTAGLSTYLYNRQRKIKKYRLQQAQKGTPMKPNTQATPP

How the values were obtained:
ICAM-1 (Homo sapiens) = ICAM-1 (Homo sapiens) (UniProt P05362); experiment: pull-down; conditions: 2'-F pyrimidines; 1 uM RNA, 300 ug lysate (450 ug also in figure), streptavidin agarose, anti-ICAM-1 immunoblot; protein in a lysate after overexpression; label: 5'-biotin; variant of 10.T
[1] = biological target: Human serum albumin (HSA) (Homo sapiens) (UniProt P02768); experiment: ELONA; conditions: 2'-F pyrimidines; Kd not calculable, no reaction with HSA up to 1000 nM; HSA coated at 25 nM; purified native protein; label: 5'-biotin; variant of 10.T

UCAUGAUACGUUGCGUGAGCAACUGCGGCGCUAAAGUUUGGUUGACUAGUACAUG [biotinylated 10.T]
binding result (ICAM-1 (Homo sapiens)): binds
pKd [1]: < 6.00
